# According to the supplement of paper PMC11732987, “Enantioselective OTUD7B fragment discovery through chemoproteomics screening and high-throughput optimisation” (Communications Chemistry, 2025):
# Sequences of proteins named here, by UniProt entry; tags and fusion partners are left off. A change or cut given only in a name is not applied to a line headed by its entry. Residues count along the entry.
# UniProt Q7Z2K8: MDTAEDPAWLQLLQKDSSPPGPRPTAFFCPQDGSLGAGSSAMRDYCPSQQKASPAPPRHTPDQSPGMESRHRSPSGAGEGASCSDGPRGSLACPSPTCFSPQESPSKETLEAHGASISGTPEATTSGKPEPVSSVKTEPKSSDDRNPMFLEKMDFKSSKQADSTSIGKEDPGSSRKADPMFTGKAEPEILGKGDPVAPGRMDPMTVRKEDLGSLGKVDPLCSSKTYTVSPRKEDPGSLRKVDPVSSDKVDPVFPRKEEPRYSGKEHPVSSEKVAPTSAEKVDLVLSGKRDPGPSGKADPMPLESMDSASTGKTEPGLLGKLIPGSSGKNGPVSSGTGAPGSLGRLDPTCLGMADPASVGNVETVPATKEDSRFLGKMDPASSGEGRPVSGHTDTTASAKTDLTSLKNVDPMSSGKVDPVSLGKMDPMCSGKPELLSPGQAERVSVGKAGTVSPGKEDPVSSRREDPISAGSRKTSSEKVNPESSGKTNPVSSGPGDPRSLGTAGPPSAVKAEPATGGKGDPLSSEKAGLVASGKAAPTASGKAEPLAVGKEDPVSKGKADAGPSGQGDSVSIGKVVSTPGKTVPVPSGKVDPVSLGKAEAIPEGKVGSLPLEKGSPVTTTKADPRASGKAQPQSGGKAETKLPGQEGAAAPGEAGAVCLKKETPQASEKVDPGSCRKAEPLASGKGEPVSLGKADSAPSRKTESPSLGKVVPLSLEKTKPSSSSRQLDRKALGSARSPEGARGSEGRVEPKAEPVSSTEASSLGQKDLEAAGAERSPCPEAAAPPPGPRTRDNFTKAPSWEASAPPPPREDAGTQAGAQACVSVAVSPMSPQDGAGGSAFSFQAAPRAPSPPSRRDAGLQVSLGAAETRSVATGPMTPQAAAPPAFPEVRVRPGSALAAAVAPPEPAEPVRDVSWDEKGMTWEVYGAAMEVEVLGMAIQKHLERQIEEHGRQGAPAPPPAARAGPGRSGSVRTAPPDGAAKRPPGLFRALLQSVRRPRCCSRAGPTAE
# UniProt Q92538, whole entry, looked up: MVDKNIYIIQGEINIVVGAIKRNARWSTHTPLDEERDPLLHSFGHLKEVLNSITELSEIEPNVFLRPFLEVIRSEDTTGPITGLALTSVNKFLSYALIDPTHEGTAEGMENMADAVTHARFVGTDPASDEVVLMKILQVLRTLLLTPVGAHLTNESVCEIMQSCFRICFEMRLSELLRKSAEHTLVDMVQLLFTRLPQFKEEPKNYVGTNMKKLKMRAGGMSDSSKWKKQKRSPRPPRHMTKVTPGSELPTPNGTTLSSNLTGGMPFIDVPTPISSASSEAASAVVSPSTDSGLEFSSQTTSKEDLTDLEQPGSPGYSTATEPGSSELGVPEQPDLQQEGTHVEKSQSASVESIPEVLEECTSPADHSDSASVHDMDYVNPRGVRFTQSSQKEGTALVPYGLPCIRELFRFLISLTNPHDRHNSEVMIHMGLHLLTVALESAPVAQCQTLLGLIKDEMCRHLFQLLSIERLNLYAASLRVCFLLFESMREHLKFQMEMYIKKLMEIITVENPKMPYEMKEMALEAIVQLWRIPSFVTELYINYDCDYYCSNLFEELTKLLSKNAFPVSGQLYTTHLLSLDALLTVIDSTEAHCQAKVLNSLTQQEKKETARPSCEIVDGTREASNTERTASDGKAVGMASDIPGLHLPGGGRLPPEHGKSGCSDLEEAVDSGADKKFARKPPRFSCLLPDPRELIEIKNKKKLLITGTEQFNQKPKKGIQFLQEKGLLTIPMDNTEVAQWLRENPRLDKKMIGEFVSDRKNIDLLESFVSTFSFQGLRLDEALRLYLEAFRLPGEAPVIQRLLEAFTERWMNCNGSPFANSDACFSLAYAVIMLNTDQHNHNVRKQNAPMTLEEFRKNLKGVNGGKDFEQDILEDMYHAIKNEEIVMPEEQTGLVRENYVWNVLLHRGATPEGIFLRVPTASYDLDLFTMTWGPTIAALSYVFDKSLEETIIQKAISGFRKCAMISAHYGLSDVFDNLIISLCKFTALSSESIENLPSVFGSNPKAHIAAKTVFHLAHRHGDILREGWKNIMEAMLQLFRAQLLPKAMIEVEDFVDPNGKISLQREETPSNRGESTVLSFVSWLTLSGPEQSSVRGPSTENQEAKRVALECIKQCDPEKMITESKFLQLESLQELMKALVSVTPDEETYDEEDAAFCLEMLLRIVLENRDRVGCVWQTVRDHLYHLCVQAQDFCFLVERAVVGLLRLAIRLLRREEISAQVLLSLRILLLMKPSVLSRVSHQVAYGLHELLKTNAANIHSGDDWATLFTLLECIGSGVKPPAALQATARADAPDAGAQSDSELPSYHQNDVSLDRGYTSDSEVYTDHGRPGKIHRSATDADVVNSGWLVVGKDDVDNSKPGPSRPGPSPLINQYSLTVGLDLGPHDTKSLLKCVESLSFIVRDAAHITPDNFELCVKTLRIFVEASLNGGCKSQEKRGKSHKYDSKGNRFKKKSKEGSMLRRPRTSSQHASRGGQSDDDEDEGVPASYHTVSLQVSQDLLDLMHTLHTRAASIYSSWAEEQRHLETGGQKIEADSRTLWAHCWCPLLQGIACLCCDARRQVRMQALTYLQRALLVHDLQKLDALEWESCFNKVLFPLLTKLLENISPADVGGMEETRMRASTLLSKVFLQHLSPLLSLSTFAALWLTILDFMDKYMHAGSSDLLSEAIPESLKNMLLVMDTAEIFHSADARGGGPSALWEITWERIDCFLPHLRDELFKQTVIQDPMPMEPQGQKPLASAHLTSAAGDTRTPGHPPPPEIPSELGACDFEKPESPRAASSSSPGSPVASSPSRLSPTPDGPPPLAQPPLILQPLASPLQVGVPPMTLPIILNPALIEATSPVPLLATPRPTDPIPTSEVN
# UniProt Q08378: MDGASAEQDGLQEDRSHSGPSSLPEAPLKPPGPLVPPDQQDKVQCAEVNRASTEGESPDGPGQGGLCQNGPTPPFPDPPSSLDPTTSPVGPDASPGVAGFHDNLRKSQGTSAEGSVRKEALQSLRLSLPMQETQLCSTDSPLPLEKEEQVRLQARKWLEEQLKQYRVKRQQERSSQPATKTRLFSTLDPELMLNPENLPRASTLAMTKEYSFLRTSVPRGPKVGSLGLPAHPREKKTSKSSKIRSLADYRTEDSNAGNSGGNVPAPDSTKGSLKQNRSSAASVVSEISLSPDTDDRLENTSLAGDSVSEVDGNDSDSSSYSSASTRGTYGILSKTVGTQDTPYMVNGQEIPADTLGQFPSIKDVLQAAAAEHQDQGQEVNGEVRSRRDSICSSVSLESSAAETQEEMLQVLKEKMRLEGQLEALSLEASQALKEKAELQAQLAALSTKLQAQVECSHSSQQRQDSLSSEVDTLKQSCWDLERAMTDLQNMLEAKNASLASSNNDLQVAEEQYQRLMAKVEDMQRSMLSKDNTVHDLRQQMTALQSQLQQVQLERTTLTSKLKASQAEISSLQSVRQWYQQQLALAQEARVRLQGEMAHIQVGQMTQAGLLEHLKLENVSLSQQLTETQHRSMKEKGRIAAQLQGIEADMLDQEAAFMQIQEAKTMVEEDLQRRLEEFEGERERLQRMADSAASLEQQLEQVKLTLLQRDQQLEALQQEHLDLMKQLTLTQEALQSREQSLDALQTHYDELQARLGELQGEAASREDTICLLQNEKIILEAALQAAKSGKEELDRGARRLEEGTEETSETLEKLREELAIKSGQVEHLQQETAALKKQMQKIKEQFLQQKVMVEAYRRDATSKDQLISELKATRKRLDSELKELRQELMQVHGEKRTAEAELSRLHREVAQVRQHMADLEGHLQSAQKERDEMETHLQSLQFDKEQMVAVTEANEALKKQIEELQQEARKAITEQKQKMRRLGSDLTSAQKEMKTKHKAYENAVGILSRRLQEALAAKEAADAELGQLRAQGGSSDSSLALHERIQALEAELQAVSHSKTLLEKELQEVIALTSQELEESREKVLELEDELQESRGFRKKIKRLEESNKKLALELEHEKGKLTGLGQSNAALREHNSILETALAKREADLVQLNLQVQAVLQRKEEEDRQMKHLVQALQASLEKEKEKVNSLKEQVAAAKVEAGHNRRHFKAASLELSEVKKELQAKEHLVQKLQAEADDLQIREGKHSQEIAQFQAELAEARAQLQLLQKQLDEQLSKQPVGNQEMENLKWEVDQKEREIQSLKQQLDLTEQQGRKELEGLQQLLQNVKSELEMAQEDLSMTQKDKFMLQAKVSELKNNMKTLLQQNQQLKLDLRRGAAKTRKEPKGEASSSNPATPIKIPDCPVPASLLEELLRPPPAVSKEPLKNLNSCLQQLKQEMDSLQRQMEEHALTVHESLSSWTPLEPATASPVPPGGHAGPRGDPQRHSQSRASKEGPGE
# UniProt Q8TEQ6: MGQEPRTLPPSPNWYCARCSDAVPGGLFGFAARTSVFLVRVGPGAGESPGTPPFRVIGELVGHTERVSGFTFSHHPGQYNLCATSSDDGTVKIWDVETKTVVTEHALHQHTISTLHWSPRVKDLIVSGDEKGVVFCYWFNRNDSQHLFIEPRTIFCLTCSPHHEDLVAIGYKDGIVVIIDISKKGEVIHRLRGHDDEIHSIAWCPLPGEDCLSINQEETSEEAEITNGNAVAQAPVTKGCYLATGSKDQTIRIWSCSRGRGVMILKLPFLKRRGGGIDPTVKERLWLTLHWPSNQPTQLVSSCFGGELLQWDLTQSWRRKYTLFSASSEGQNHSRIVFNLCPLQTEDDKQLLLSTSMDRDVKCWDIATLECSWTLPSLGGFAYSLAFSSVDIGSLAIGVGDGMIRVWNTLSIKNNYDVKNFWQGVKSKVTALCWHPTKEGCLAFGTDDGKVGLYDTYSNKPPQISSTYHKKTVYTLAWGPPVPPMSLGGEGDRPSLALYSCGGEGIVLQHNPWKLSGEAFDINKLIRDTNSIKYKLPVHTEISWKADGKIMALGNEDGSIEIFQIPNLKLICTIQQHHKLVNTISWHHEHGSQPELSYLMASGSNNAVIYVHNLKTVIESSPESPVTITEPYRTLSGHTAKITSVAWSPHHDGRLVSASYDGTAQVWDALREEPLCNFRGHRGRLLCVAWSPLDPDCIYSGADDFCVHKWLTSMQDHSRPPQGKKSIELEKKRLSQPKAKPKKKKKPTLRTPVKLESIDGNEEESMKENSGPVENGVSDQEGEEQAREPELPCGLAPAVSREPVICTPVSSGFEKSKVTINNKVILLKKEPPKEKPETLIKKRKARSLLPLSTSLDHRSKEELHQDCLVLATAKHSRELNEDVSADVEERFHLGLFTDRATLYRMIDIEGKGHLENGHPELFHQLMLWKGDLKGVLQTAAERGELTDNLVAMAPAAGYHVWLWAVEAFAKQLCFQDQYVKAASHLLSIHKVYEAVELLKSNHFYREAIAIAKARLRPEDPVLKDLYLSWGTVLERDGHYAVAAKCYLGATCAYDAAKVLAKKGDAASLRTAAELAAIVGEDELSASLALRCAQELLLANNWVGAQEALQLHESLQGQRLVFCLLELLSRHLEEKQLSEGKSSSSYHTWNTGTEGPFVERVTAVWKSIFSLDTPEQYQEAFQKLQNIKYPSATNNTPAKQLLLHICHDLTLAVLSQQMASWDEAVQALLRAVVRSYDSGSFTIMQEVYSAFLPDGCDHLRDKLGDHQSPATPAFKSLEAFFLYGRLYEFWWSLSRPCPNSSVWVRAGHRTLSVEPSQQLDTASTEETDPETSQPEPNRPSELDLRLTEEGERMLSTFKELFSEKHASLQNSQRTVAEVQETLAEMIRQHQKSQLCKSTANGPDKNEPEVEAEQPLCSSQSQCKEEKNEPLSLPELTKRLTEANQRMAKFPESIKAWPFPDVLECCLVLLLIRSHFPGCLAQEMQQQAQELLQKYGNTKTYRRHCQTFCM
# UniProt Q14789, 1143-1165: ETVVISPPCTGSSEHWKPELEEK
# UniProt Q9BQ67, 263-287: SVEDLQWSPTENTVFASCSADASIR
# UniProt Q9NQX3, 209-243: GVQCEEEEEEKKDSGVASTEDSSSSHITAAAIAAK
# UniProt Q9P2T1: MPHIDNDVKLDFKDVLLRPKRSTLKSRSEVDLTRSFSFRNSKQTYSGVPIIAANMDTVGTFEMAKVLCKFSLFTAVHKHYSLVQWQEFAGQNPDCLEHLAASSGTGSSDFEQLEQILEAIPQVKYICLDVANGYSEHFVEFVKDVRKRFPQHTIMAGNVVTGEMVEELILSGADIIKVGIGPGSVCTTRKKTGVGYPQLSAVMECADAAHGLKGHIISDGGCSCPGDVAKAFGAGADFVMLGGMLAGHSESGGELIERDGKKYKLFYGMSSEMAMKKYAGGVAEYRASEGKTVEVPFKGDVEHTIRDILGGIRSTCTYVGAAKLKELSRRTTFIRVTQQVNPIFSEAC
# UniProt Q8N954: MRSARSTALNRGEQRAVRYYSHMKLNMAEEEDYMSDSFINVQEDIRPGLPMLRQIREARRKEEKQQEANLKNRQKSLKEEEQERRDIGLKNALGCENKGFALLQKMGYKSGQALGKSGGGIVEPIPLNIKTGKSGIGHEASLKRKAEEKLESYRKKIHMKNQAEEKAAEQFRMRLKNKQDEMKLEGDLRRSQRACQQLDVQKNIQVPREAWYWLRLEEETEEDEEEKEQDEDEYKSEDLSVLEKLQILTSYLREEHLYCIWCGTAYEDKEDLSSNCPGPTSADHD
# Some of the results follow. The data scatter; read single values as rough.
# What was measured:
# [1] = compound: ClCC(=O)N[C@@H]1CCCc2ccccc12; experiment: log2 mean competition ratio of IA-DTB cysteine labelling (DMSO/compound) (log2 ratio); higher = stronger cysteine engagement by compound; details: treatment time: 4 h, cell line lysate: HEK293T
# Protocol: (§1)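 IA-DTB competitive cysteine chemoproteomics in HEK293T RIPA lysate. Lysates were treated with compound 29 or 30 at 50 or 200 µM for 4 h, then IA-DTB (500 µM, 1 h), trypsin-digested, NeutrAvidin-enriched and analysed by diaPASEF. Competition ratio = intensity DMSO / intensity compound (n=4 treated, n=64 DMSO); binding: mean log2 CR ≥ 1 and p ≤ 0.05 plus QC filters. Target is the cysteine site.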
# [2] = compound: ClCC(=O)N[C@H]1CCCc2ccccc12; experiment: as above; details: treatment time: 4 h, cell line lysate: HEK293T
# Protocol: as §1
Target,log2 mean competition ratio ([1]; 50 µM),log2 mean competition ratio ([1]; 200 µM),log2 mean competition ratio ([2]; 50 µM),log2 mean competition ratio ([2]; 200 µM)
GORAB C131 (UniProt Q5T7V8),-0.346,-0.0953,–,–
GSTCD C140 (UniProt Q8NEC7),0.699,0.241,–,–
GNB1L C5 (UniProt Q9BYB4),-0.157,-0.232,–,–
GGCX C99 (UniProt P38435),-0.0693,-0.0628,–,–
GSPT1 C327 (UniProt P15170),-0.096,-0.043,–,–
GNE C183 (UniProt Q9Y223),0.29,0.0828,–,–
GON4L C1723 (UniProt Q3T8J9),-0.528,–,–,–
GPC1 C343 (UniProt P35052),0.164,0.308,–,–
GIT2 C149 (UniProt Q14161),-0.0855,-0.157,–,–
GPD2 C385 (UniProt P43304),-0.136,0.007,–,–
GPRIN1 C675 (UniProt Q7Z2K8),-0.132,0.225,–,–
GEN1 C880 (UniProt Q17RS7),-0.0616,0.0152,–,–
GPRIN1 C46 (UniProt Q7Z2K8),0.0244,0.086,–,–
GLG1 C269 (UniProt Q92896),-0.272,0.255,–,–
GBF1 C1110 (UniProt Q92538),-0.152,0.225,–,–
GCC2 C48 (UniProt Q8IWJ2),-0.167,-0.0277,–,–
GLRX3 C229 (UniProt O76003),-0.661,0.0715,–,–
GOLGA4 C1269 (UniProt Q13439),0.2,0.361,–,–
GOLGA3 C455 (UniProt Q08378),0.0629,-0.162,–,–
GGA2 C343 (UniProt Q9UJY4),0.184,0.277,–,–
GPD1L C216 (UniProt Q8N335),0.283,0.242,–,–
GCAT C404 (UniProt O75600),-0.183,0.0337,–,–

Target,log2 mean competition ratio ([1]; 50 µM),log2 mean competition ratio ([1]; 200 µM),log2 mean competition ratio ([2]; 50 µM),log2 mean competition ratio ([2]; 200 µM)
GOLGA3 C45 (UniProt Q08378),0.196,0.0939,–,–
GOLGA4 C1849 (UniProt Q13439),-0.234,0.0421,–,–
GDE1 C53 (UniProt Q9NZC3),–,-0.213,–,–
GPATCH8 C1161 (UniProt Q9UKJ3),-0.125,0.0176,–,–
GEMIN5 C793 (UniProt Q8TEQ6),-0.311,0.206,–,–
GIT2 C122 (UniProt Q14161),-0.0887,0.0613,–,–
GRK6 C474 (UniProt P43250),0.0365,0.252,–,–
GSE1 C1151 (UniProt Q14687),-0.256,0.118,–,–
GIGYF1 C583 (UniProt O75420),0.372,–,–,–
GCN1 C2558 (UniProt Q92616),0.00373,0.02,–,–
GK;GK3P C421;(C415),0.107,-0.122,–,–
GPRIN1 C428 (UniProt Q7Z2K8),-0.164,0.334,–,–
GNPNAT1 C128 (UniProt Q96EK6),-0.296,0.126,–,–
GPC1 C246 (UniProt P35052),-0.295,0.21,–,–
GON4L C2140 (UniProt Q3T8J9),0.0416,-0.102,–,–
GOLGB1 C1964 (UniProt Q14789),-0.255,0.147,-0.886,0.00173
GNL3 C234 (UniProt Q9BVP2),-0.134,0.016,0.926,0.308
GPRC5A C284 (UniProt Q8NFJ5),0.00591,0.651,-0.189,0.312
GBF1 C613 (UniProt Q92538),0.128,0.0677,0.107,0.0811
GINS3 C188 (UniProt Q9BRX5),0.0736,-0.255,0.0406,-0.0965
GDAP2 C148 (UniProt Q9NXN4),-0.0436,0.0349,0.181,0.0235
GFPT1 C254 (UniProt Q06210),0.234,0.272,0.336,0.205

# Reformatted bar-delimited: entries from further up
Target | log2 mean competition ratio ([1]; 50 µM) | log2 mean competition ratio ([1]; 200 µM) | log2 mean competition ratio ([2]; 50 µM) | log2 mean competition ratio ([2]; 200 µM)
GOLGA3 C45 (UniProt Q08378) | 0.196 | 0.0939 | – | –
GOLGA4 C1849 (UniProt Q13439) | -0.234 | 0.0421 | – | –

# Next part.

Target,log2 mean competition ratio ([1]; 50 µM),log2 mean competition ratio ([1]; 200 µM),log2 mean competition ratio ([2]; 50 µM),log2 mean competition ratio ([2]; 200 µM)
GLTP C176 (UniProt Q9NZD2),0.0651,-0.546,-0.377,-0.287
GFM2 C248 (UniProt Q969S9),0.122,0.174,-0.298,0.103
GRID1 C811,-0.0331,0.111,-0.148,0.191
GEMIN5 C806 (UniProt Q8TEQ6),-0.153,-0.0532,0.00755,-0.0193
GOLGB1 C1055 (UniProt Q14789),-0.13,0.247,-0.12,0.461
GRWD1 C280 (UniProt Q9BQ67),-0.328,0.117,0.137,0.0392
GNAI3 C139 (UniProt P08754),-0.0277,-0.0405,0.0819,0.0548
GLI3 C870,-0.0691,0.306,-0.0475,0.139
GOLGA3 C769 (UniProt Q08378),-0.127,-0.397,-0.152,-0.281
GGPS1 C205 (UniProt O95749),-0.0667,-0.228,-0.237,-0.000822
GCN1 C329 (UniProt Q92616),-0.113,0.00993,-0.282,0.0612
GMPS C530 (UniProt P49915),0.0507,-0.361,-0.0225,-0.084
GPATCH8 C882 (UniProt Q9UKJ3),-0.0686,-0.249,0.0431,-0.119
GPD1L C202 (UniProt Q8N335),-0.0937,0.181,0.0177,0.131
GPRIN3 C434,-0.0251,-0.255,0.232,-0.195
GOLGB1 C1151 (UniProt Q14789),-0.228,-0.216,0.198,-0.0517
GGCX C323 (UniProt P38435),-0.306,-0.0452,-0.339,-0.00184
GLUD1 C376 (UniProt P00367),-0.011,0.543,-0.384,0.122
GMPS C4 (UniProt P49915),-0.334,-0.15,0.292,0.165
GLUD1 C172 (UniProt P00367),-0.0808,0.228,-0.195,0.033
GRK3 C681 (UniProt P35626),0.143,-0.229,-0.389,-0.145
GPHN C26 (UniProt Q9NQX3),0.352,0.0232,0.277,0.209

Target,log2 mean competition ratio ([1]; 50 µM),log2 mean competition ratio ([1]; 200 µM),log2 mean competition ratio ([2]; 50 µM),log2 mean competition ratio ([2]; 200 µM)
GCN1 C1482 (UniProt Q92616),-0.148,0.176,-0.138,0.284
GNPNAT1 C179 (UniProt Q96EK6),-0.00366,-0.2,0.238,-0.125
GLYR1 C303 (UniProt Q49A26),-0.00409,-0.0412,-0.0634,0.0473
GPC4 C408 (UniProt O75487),0.000537,0.0235,0.422,0.0608
GMPR2 C348 (UniProt Q9P2T1),0.1,-0.341,0.476,-0.184
GNL2 C257 (UniProt Q13823),0.314,0.137,0.000593,0.0301
GPSM1 C616 (UniProt Q86YR5),0.0375,0.0559,-0.328,-0.0206
GBF1 C685 (UniProt Q92538),0.156,0.251,-0.104,0.451
GIGYF1 C514 (UniProt O75420),0.175,0.00737,-0.328,0.0377
GCC2 C257 (UniProt Q8IWJ2),0.0422,-0.256,-0.332,-0.311
GPD2 C45 (UniProt P43304),0.0728,-0.385,0.197,-0.288
GOLGB1 C2664 (UniProt Q14789),-0.224,-0.238,-0.495,-0.218
GPHN C284 (UniProt Q9NQX3),0.0959,0.039,0.332,0.173
GOLGA4 C1862 (UniProt Q13439),-0.0183,0.164,-0.385,0.0495
GPR108 C104 (UniProt Q9NPR9),-0.0586,-0.254,-0.351,-0.0962
GRK5 C138 (UniProt P34947),0.104,-0.0763,0.4,-0.191
GMIP C895 (UniProt Q9P107),0.0155,-0.236,-0.112,0.0651
GPATCH11 C95 (UniProt Q8N954),0.118,-0.0212,0.342,0.0699
GBF1 C1414 (UniProt Q92538),-0.0163,-0.041,-0.242,-0.065
GCC2 C889 (UniProt Q8IWJ2),-0.388,0.332,-0.164,0.246
GOLPH3 C108 (UniProt Q9H4A6),0.0675,0.00201,0.185,0.0396
GGNBP2 C554 (UniProt Q9H3C7),-0.206,-0.0399,-0.255,0.278

Target,log2 mean competition ratio ([1]; 50 µM),log2 mean competition ratio ([1]; 200 µM),log2 mean competition ratio ([2]; 50 µM),log2 mean competition ratio ([2]; 200 µM)
GCN1 C246 (UniProt Q92616),0.356,-0.0295,0.117,0.0747
GEMIN5 C867 (UniProt Q8TEQ6),-0.101,0.292,-0.551,0.0202
GOLGA2 C356 (UniProt Q08379),-0.059,-0.183,0.522,0.568
GNAI1 C66 (UniProt P63096),-0.35,0.00975,-0.543,-0.0267
GPHN C212 (UniProt Q9NQX3),-0.31,-0.432,-0.338,-0.444
GNAI1 C139 (UniProt P63096),-0.0891,-0.154,0.0449,-0.0708
GPD2 C270 (UniProt P43304),-0.245,0.0828,-0.382,-0.0478
GNB4 C25 (UniProt Q9HAV0),-0.0814,0.12,0.216,-0.313
GDI2 C414,-0.518,-0.165,-0.467,-0.0202
GEMIN4 C382 (UniProt P57678),-0.414,0.0616,-0.206,0.087
GPX4 C134 (UniProt P36969),0.0815,-0.117,-0.772,-0.183
GSK3B C76 (UniProt P49841),0.238,0.157,-0.371,0.0752
GSK3A C170 (UniProt P49840),0.185,-0.388,-0.118,-0.444
GPD2 C188 (UniProt P43304),-0.0222,-0.379,-0.715,-0.291
GLCCI1 C207 (UniProt Q86VQ1),0.25,0.275,0.0618,0.236
GFPT1 C264 (UniProt Q06210),-0.0999,-0.12,0.0772,0.123
GRB10 C321 (UniProt Q13322),-0.163,0.00858,0.109,-0.0205
GPKOW C465 (UniProt Q92917),-0.368,0.175,-0.328,0.416
